Measured values published in article PMC8269055.
No constants are given. Whether binding was seen depends on the method and setting. Binding seen in cells or lysates may run through a third protein. Some results given as binding are weak or reduced against the parent protein; the word gives no strength.

Chains of the proteins cited; added tags and fusions are not shown.
UniProt Q14457: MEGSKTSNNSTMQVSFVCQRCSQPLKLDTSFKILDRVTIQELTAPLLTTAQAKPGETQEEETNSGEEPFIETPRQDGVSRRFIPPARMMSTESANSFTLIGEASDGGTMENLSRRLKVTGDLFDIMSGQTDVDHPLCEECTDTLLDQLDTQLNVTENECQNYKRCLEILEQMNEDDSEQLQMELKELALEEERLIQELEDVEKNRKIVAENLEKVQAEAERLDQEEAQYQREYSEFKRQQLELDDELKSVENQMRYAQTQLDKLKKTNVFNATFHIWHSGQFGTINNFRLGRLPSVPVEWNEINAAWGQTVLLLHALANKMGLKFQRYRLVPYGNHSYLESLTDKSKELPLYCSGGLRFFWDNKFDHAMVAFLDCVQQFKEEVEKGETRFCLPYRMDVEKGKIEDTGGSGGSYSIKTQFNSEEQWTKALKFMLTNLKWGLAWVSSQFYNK
UniProt P10415: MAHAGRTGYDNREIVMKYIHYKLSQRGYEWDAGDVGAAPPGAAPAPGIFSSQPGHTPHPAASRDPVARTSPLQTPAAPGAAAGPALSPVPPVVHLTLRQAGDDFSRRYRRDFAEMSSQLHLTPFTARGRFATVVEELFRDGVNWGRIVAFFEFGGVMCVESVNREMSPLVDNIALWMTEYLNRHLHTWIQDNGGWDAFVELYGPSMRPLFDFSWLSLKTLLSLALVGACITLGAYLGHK

Biological target: Beclin-1 (human (endogenous in pancreatic cancer cell lines)) (UniProt Q14457)
Assay: co-IP; pre-cleared lysates (1 mg/mL) of PC cells, untreated or treated with Nic (10 µM; 24 and 48 h), incubated with Beclin-1 antibody or isotype control antibody and protein A/G plus agarose beads overnight at 4 °C; washed with RIPA lysis buffer; blotted with anti-BCL2 or anti-Beclin1

BCL2 (from UniProt P10415 1-239)
binding: binds
